Assay results as given in patent publication US10561749B2, “Nuclear medicine diagnostic imaging agent” (Kyoto University, priority 2015, dated 2020).
Some results were stated once for a whole list of compounds, not compound by compound. For at least one compound, name, drawing or mass did not settle the structure.

What was measured:
[1] = target: T1, EGFR (L858R) (Homo sapiens, UniProt P00533, L858R); experiment: EGFR tyrosine kinase inhibiting activity, ADP-Glo (EGFR (L858R) Kinase Enzyme System); format: biochemical; settings: summary of Table 1
T1 construct: purchased Promega V5322
Method: (§1) Four types of EGFR Kinase Enzyme Systems, specifically, EGFR Kinase Enzyme System (Catalog No. V3831), EGFR (L858R) Kinase Enzyme System (Catalog No. V5322), EGFR (T790M) Kinase Enzyme System (Catalog No. V4506), and EGFR (T790M, L858R) Kinase Enzyme System (Catalog No. V5324) were used (all of them were manufactured by Promega).
(§2) The measurement was carried out according to the Promega protocol applications guide. That is, a buffer solution (40 mM Tris-HCl, pH 7.5, 20 mM MgCl2, 50 μM DTT and 0.1 mg/mL BSA) was used as a dilute solution. The concentration of each compound started at 20 μM (the final concentration, including 1% DMSO) with 5-fold dilutions with the buffer solution. Thus, ten concentrations of each compound were prepared. Then, 2 μL of each concentration of each compound thus obtained was added to each well of a 384-well plate. Furthermore, 4 μL (20 ng) of an EGFR Kinase […] that came with each EGFR Kinase Enzyme System was added to each well, which then was incubated at room temperature for ten minutes. Subsequently, 4 μL of mixed solution of ATP (10 μM) and Poly(Glu, Tyr) (2 μg) substrate was added to each well, which then was incubated at room temperature for one hour. […] From the data thus obtained, dose-response curves and IC50 were calculated using GraphPad Prism 5 (GraphPad Software, Inc.). […]

[2] = target: T2, EGFR (T790M, L858R) (Homo sapiens, UniProt P00533, L858R/T790M); experiment: EGFR tyrosine kinase inhibiting activity, ADP-Glo (EGFR (T790M, L858R) Kinase Enzyme System, DM); format: biochemical; settings: summary of Table 1
T2 construct: purchased Promega V5324
Method: as §1, §2

Structure (SMILES): O=C(/C=C/CN1CCN(CCF)CC1)N1CCc2c(sc3ncnc(Nc4cccc(Br)c4)c23)C1 [P8]
- binding affinity to the L858R-mutated EGFR (in words) [1]: relatively high binding affinity
- binding affinity to the L858R/T790M-mutated EGFR (DM) (in words) [2]: no binding affinity
